Data source: PubChem BioAssay AID1259280 (Sanger Institute, 2017)
Assay: 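Kinome siRNA screen for partners that synergise with BYL719, cetuximab or trametinib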 (primary screen). Cell system: human SNU407 colorectal cancer cells. Reagents: siRNA pool against human genes. Challenge: anchor drugs BYL719 at 1 µM, cetuximab at 5 µg/ml or trametinib at 10 nM, or DMSO vehicle alone; exposure time not given. Detection: 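Viability relative to non-targeting control siRNA, expressed as robust z-score, plus a synergy score for each of the three anchor drugs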. Direction: viability z-score, no drug and viability vs control, no drug: higher = more cells survive the knock-down. Call rule: 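a knock-down counts as essential when its robust viability z-score without drug is below -3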. Calls: active = essential (knock-down alone kills cells); inactive = no change without drug.
The whole screen tested 794 reagents; shown is a part drawn at random. 12 of them (1.5%) count as active. 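Calls cover knock-down without drug only; synergy scores stand apart, values above 0.15 being treated as synergy.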 No viability above 1 is reported: the scale is capped. Further read-outs or replicates are left out here. Not given: the amount of reagent, the time to read-out.

| target | viability z-score, no drug | viability vs control, no drug (fraction of control) | activity call |
| --- | --- | --- | --- |
| BRD3 | 0.405 | 0.962 | inactive |
| JAK1 | 0.705 | 0.985 | inactive |
| BMAL1 | -1.12 | 0.846 | inactive |
| SHPK | 0.901 | 1 | inactive |
| PIK3CA | -0.619 | 0.884 | inactive |
| TLK1 | 0.807 | 0.993 | inactive |
| SPHK2 | -1.29 | 0.833 | inactive |
| PRKAG1 | 0.281 | 0.953 | inactive |
| STYK1 | -0.166 | 0.919 | inactive |
| PTK6 | 0.901 | 1 | inactive |
| MKNK2 | -0.517 | 0.892 | inactive |
| IPMK | 0.795 | 0.992 | inactive |
| MAP2K1 | 0.782 | 0.991 | inactive |
| FGFR4 | -0.737 | 0.875 | inactive |
| HK3 | 0.901 | 1 | inactive |
| MLKL | 0.901 | 1 | inactive |
| COASY | -2.13 | 0.768 | inactive |
| MYLK4 | -1.21 | 0.839 | inactive |
| TWF2 | 0.237 | 0.949 | inactive |
| CAMK2B | 0.682 | 0.983 | inactive |
| ULK2 | -0.307 | 0.908 | inactive |
| PDGFRL | 0.0122 | 0.932 | inactive |
| FER | 0.746 | 0.988 | inactive |
| SOS2 | -1.02 | 0.853 | inactive |
| PANK2 | 0.901 | 1 | inactive |
| RET | 0.282 | 0.953 | inactive |
| PRKACG | 0.901 | 1 | inactive |
| WT1 | 0.0792 | 0.937 | inactive |
| PAK6 | 0.592 | 0.976 | inactive |
| KALRN | -1.65 | 0.805 | inactive |
| PTEN | 0.811 | 0.993 | inactive |
| PHKG1 | 0.385 | 0.961 | inactive |
| TTBK1 | -0.62 | 0.884 | inactive |
| MKNK1 | 0.901 | 1 | inactive |
| AXL | 0.191 | 0.946 | inactive |
| SOX9 | -0.742 | 0.874 | inactive |
| KCNH2 | -0.454 | 0.897 | inactive |
| VRK1 | -0.0323 | 0.929 | inactive |
| MAPKAPK2 | 0.901 | 1 | inactive |
| PI4KB | 0.901 | 1 | inactive |
| CDKL4 | -1.78 | 0.795 | inactive |
| EPHA1 | -0.383 | 0.902 | inactive |
| PLK1 | -6.14 | 0.462 | active |
| PI4K2A | 0.901 | 1 | inactive |
| PLK2 | 0.901 | 1 | inactive |
| DIS3 | 0.628 | 0.979 | inactive |
| PANK3 | 0.901 | 1 | inactive |
| RPS6KL1 | 0.492 | 0.969 | inactive |
| NIM1K | 0.901 | 1 | inactive |
| PRKAG2 | -0.253 | 0.912 | inactive |

Not a retest: 8 of the entries above.
| target | viability z-score, no drug | viability vs control, no drug (fraction of control) | activity call |
| --- | --- | --- | --- |
| ULK2 | -0.307 | 0.908 | inactive |
| PDGFRL | 0.0122 | 0.932 | inactive |
| FER | 0.746 | 0.988 | inactive |
| SOS2 | -1.02 | 0.853 | inactive |
| PANK2 | 0.901 | 1 | inactive |
| RET | 0.282 | 0.953 | inactive |
| PRKACG | 0.901 | 1 | inactive |
| WT1 | 0.0792 | 0.937 | inactive |
